Earlier results in patent US20070155772A1, “Use of genetic polymorphisms that associate with efficacy of treatment of inflammatory disease” (priority 2003, published 2007).
Some of these results come from one statement about several compounds together.

Test system: patients taking topical macrolactams
Settings: currently; background statement; cited from earlier work

Q: Which “response rate among patients taking topical macrolactams” value does the source give for `C=CC[C@@H]1/C=C(\C)C[C@H](C)C[C@H](OC)[C@H]2O[C@@](O)(C(=O)C(=O)N3CCCC[C@H]3C(=O)O[C@H](/C(C)=C/[C@@H]3CC[C@@H](O)[C@H](OC)C3)[C@H](C)[C@@H](O)CC1=O)[C@H](C)C[C@@H]2OC` [tacrolimus] here?
A: less than 50%

Q: Which “response rate among patients taking topical macrolactams” value does the source give for `CC[C@@H]1/C=C(\C)C[C@H](C)C[C@H](OC)[C@H]2O[C@@](O)(C(=O)C(=O)N3CCCC[C@H]3C(=O)O[C@H](/C(C)=C/[C@@H]3CC[C@H](Cl)[C@H](OC)C3)[C@H](C)[C@@H](O)CC1=O)[C@H](C)C[C@@H]2OC` [pimecrolimus] here?
A: less than 50%
